Reference: patent US20230125052A1, “RED BLOOD CELL-DERIVED VESICLE” (Imperial College Innovations Limited, priority 2019, published 2023)
No constants are given. Whether binding was seen depends on the method and setting. Some results given as binding are weak or reduced against the parent protein; the word gives no strength.

Molecular target: active GPIIb-IIIa (αIIbβ3) integrin on thrombin-activated platelets (sheep)
Assay: platelet aggregation inhibition in PRP, thrombin-activated

binding: binds
Binder: RGDFV (head-to-tail cyclic peptide; d-Phe at position 4) [cyclo(Arg-Gly-Asp-d-Phe-Val), free]
